Record: PubChem BioAssay AID504793 (Drosophila RNAi Screening Center, 2011)
Screen: 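Knock-downs allowing continued mitosis even though DNA is damaged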 (primary screen). Cells: Drosophila S2R+ cells. Knock-down reagent: long dsRNA against Drosophila genes, about 0.25 µg dsRNA per well. Time to read-out: 4 days of dsRNA, then 4 hours of drug before read-out. Treatment: doxorubicin 0.5 µM for 4 hours to cause double-strand breaks, in cells also given a low, harmless dose of dsRNA against nbs to sensitise the assay. Measured: 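Mitotic index as the number of phospho-histone H3-positive cells in each well following doxorubicin, given as raw counts without normalisation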. Direction: mitotic cells: higher = more cells in mitosis, weaker G2 arrest. Rule for the call: 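Genes are called active only when high mitotic counts were reproduced with independent dsRNAs and mitosis was checked for delay without damage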. Calls: active = confirmed in follow-up tests; inactive = not confirmed.
The deposit covers about 23,000 reagents; below is a random part of those with a known target gene and a result. In the full data, 62 (0.27%) are marked active. 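Calls come from follow-up tests whose scores are not deposited, so confirmed genes may have low counts here; counts are not normalised per plate.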 Raw values are not corrected between plates. Entries without a mark were called inactive. A plus sign joins genes that one reagent is predicted to hit. Reagent sequences are not shown.

CG11200 [DRSC06060]
- mitotic cells, replicate 1: 5

CG11200 [DRSC27196]
- mitotic cells, replicate 1: 9

Cyp6a23 [DRSC07383]
- mitotic cells, replicate 1: 5

Cyp6a23 [DRSC29473]
- mitotic cells, replicate 1: 4

nonA-l [DRSC17017]
- mitotic cells, replicate 1: 5

nonA-l [DRSC25387]
- mitotic cells, replicate 1: 4

Glut3 [DRSC16681]
- mitotic cells, replicate 1: 3

Glut3 [DRSC26249]
- mitotic cells, replicate 1: 3

CG8818 [DRSC07275]
- mitotic cells, replicate 1: 8

CG8818 [DRSC28138]
- mitotic cells, replicate 1: 4

CG31933 [DRSC00457]
- mitotic cells, replicate 1: 9

sle [DRSC14557]
- mitotic cells, replicate 1: 10

Pex12 [DRSC00622]
- mitotic cells, replicate 1: 5

Pex12 [DRSC27149]
- mitotic cells, replicate 1: 4

The list goes on; the last 3 above are carried over.
sle [DRSC14557]
- mitotic cells, replicate 1: 10

Pex12 [DRSC00622]
- mitotic cells, replicate 1: 5

Pex12 [DRSC27149]
- mitotic cells, replicate 1: 4

CG3776 [DRSC04417]
- mitotic cells, replicate 1: 11

His4:CG33883 + His4:CG33889 + His4:CG33899 + 20 more [DRSC21268]
- mitotic cells, replicate 1: 5

His4:CG33883 + His4:CG33889 + His4:CG33899 + 20 more [DRSC30020]
- mitotic cells, replicate 1: 11

CDK2AP1 [DRSC19800]
- mitotic cells, replicate 1: 5

CDK2AP1 [DRSC25637]
- mitotic cells, replicate 1: 9

Nlg2 [DRSC03578]
- mitotic cells, replicate 1: 8

Nlg2 [DRSC25217]
- mitotic cells, replicate 1: 2

Dip-C [DRSC15855]
- mitotic cells, replicate 1: 10

sNPF-R [DRSC10836]
- mitotic cells, replicate 1: 7
